Assay: general procedure: Boc solid-phase peptide synthesis
Conditions: whole synthesis

## CLSQLHSGLFLYQGLLQALEGISPELGPTLDTLQLDVADFATTIWQQMEEL-thioester (where Cys^1 is Acm protected) (CLSQLHSGLFLYQGLLQALEGISPELGPTLDTLQLDVADFATTIWQQMEEL; C-terminal thioester; GRFN 1852 peptide)
  difficulty met: the non-polymer modified peptide GRFN 1852 is poorly soluble

Reference: patent US20060173159A1 (priority 2002, published 2006)
